Several values for one entry are separate records, joined by “and”; a condition that tells them apart may be missing. Equal values may be shown once. ± gives the standard deviation of the averaged measurements. Over roughly 1,700 compounds, “T2 sensor activation Q score (MG/GFP ratio z-score vs DMSO controls)” has its median near 0.3; the highest 2% begin near 1.9. The list shows a part of the results.
System: ppGalNAc-T2 sensor
Test: T2 sensor activation Q score (MG/GFP ratio z-score vs DMSO controls) (SD units); higher = more sensor activation (inhibition of ppGalNAc-T2 glycosylation)
Conditions: HEK293 sensor cells; 10 µM; 6 h
Description: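 Cells were treated with compound at 10 uM for 6 h, then MG/GFP ratio was read by flow cytometry (10,000 cells per well, duplicate wells). Q = (R - R_neg)/SD_neg relative to DMSO vehicle controls; the signal rises when the glycosyltransferase is inhibited.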

Row | SMILES | T2 sensor activation Q score
1 | COc1ccc2c(c1)CCCN2C(N)=Nc1ccc(Cl)cc1 | 1.25
2 | O=Cc1ccc(O)c2ncccc12 | -0.25
3 | CN(C)CCCn1c2c3ccccc3ccc2c2oc(=O)c3ccccc3c21 | -0.8
4 | Cc1cccnc1NC(=S)Nc1ncccc1C | 0.9
5 | OCCN1CCSC1=S | 0.75
6 | CCCNC(=O)c1ccc(Cl)cc1Cl | -1.9
7 | Cc1cc(N2CCN(C)CC2)n2nc(-c3ccc(Cl)cc3)nc2n1 | -0.1
8 | Cn1c(=O)c2[nH]c(N3CCCCC3)nc2n(C)c1=O | 2.15
9 | O=C(O)C1OCC2(CO1)COC(C(=O)O)OC2 (centres undefined) | 0.7
10 | O=C(O)c1ccccc1C(=O)Nc1ccccc1[N+](=O)[O-] | 1.35
11 | CC(C)COc1nc2c(c(=O)n(C)c(=O)n2C)n1C | 0.8
12 | COc1ccc(N/C=C2\C(=O)CCc3c2oc2cc(Cl)c(O)c(Cl)c32)cc1 | 0.75
13 | COc1cc(N=Nc2ccccc2C(=O)O)ccc1O | 1.55
14 | NC(=O)CCC(C(=O)O)N1C(=O)C2C3CCC(C3)C2C1=O (centres undefined) | -0.75
15 | CCOC(=O)c1cc[nH]c1CC(=O)NC | -0.4
16 | O=C(CC1(O)CCCCC1)OC1CCCC1 | -0.05
17 | O=C(O)c1cc2ccccc2c2cc(Br)ccc12 | -0.75
18 | c1ccc2cc(OCCOCCOc3ccc4ccccc4c3)ccc2c1 | 1.6
19 | CCOC(=O)c1c(O)cc(C)[nH]c1=O | 0
20 | Nc1ccccc1-c1nc2ccncc2[nH]1 | 0.7
21 | Cc1cc(=O)c2c(=O)[nH][nH]c2[nH]1 | -0.75
22 | CC(=O)Nc1ccc(S(=O)(=O)N/N=c2/sc3ccccc3n2C)cc1N | -0.6
23 | c1ccc(-c2cn3ccccc3n2)cc1 | -0.6
24 | Oc1ccc(-c2nc3ccccc3s2)c(O)c1 | 0.2
25 | O=C(Nc1ccccc1)Oc1ccc[nH]c1=O | 0.1
26 | O=C(O)c1ccc(N2CCCCC2)cc1O | -0.25

Row | SMILES | T2 sensor activation Q score
27 | CC(=O)CC[N+](C)(C)C | -1.1
28 | CN(Cc1cnc2nc(N)nc(N)c2n1)c1ccc(C(=O)N[C@@H](CCC(=O)O)C(=O)O)cc1 | -1.65
29 | CCCCCCCCC(=O)c1c(OC)oc(C=O)cc1=O | 0.5
30 | CC1=CC(C)(C(Cl)(Cl)Cl)C(C)=C/C1=N/O (centres undefined) | 1.25
31 | CC(=O)NCCCOc1ccc([N+](=O)[O-])cc1Cl | 0.4
32 | C(COC1CC2CC1C1C2CC2OC21)OC1CC2CC1C1C2CC2OC21 (centres undefined) | 0.15
33 | C=CCOc1ccc(S(C)(=O)=O)cc1 | 1.1
34 | [O-][n+]1nc2ccccc2c2ccccc21 | -1.75
35 | COC1=C(N)C(=O)c2nc(-c3nc(C(=O)O)c(C)c(-c4ccc(OC)c(OC)c4O)c3N)ccc2C1=O | 1 and 1.6
36 | OCc1nc2nc(Cl)c(Cl)nc2[nH]1 | 0.4
37 | CCC1(CC)C(=O)NC(=S)N=C1N | 1.7
38 | O=C(Nc1cccc([N+](=O)[O-])c1)c1cccc(C(=O)Nc2cccc([N+](=O)[O-])c2)c1 | -0.8
39 | Cc1ccc(N=Nc2ccc(N)cc2C)c(S(N)(=O)=O)c1 | 1.5
40 | Cc1nc2ccccc2nc1NS(=O)(=O)c1ccc(N)cc1 | 1.35
41 | Cn1ncc2c(Nc3ccccc3Cl)nc(Cl)nc21 | 1.35
42 | O=C(Nc1cccc2ccccc12)c1cc2c(cc1Br)OCO2 | 0.45
43 | O=c1cccc2cc(O)c(O)c(O)c2c1O | 2.35
44 | Cc1oc2c(c(C)nn2-c2ccccc2)c(=O)c1Cl | 0.9
45 | CC(=O)Oc1c(C)c(OC(C)=O)c2c(c1C(C)=O)OC1CC(=O)C(C(C)=O)=C(O)C21C (centres undefined) | -1.8
46 | CC(C)NC(=O)Nc1cccc(Cl)c1 | 0
47 | Cc1c(Cl)cccc1Nc1ncccc1C(=O)OCC(O)CO (centres undefined) | -0.65
48 | O=C(Nc1cccc(Cl)c1)Nn1cnnc1 | 0.65
49 | O=C1C2C3C=CC(O3)C2C(=O)N1Nc1ccccc1 (centres undefined) | 0.25
50 | Cc1nc(Nc2ncc(C(=O)Nc3c(C)cccc3Cl)s2)cc(N2CCN(CCO)CC2)n1 | -1.8
51 | FC(F)(F)c1cccc(-c2nc3nc(Cl)c(Cl)nc3[nH]2)c1 | -0.2
52 | Cc1ccc(C2C=CC(C#N)=CN2Cc2ccccc2)cc1 (centres undefined) | 1.2

Row | SMILES | T2 sensor activation Q score
53 | COc1cc([C@@H]2c3cc4c(cc3[C@@H](O[C@@H]3O[C@@H]5CO[C@@H](c6cccs6)O[C@H]5[C@H](O)[C@H]3O)[C@H]3COC(=O)[C@H]23)OCO4)cc(OC)c1O | 0.9 ± 1.5
54 | CCOC(=O)C(=O)Cc1nc2ccccc2s1 | 0.1
55 | CCOc1ccc(NC(=O)C2CCCN(C)C2)cc1 (centres undefined) | 1
56 | NC(=O)c1ccc(Cl)c2ccccc12 | -0.85
57 | c1ccc(Sc2ncnc3ccccc23)cc1 | 1.2
58 | CN(C)C(=O)c1cccc(COc2ccc(N3C(N)=NC(N)=NC3(C)C)cc2Cl)c1 | -0.65
59 | Nc1ccn([C@@H]2O[C@H](CO)[C@@H](O)[C@@H]2O)c(=O)n1 | 0.45
60 | O=C(Nc1ccccc1)Nc1ccccn1 | -1.7
61 | COC(=O)C1CC(O)C(O)C(O)C1 (centres undefined) | -0.4
62 | CCCCc1c(C)[nH]c(=S)[nH]c1=O | -0.75
63 | CC(=O)Nc1nc(C)c(CCCOc2ccc([N+](=O)[O-])cc2)c(=O)[nH]1 | 0.3
64 | O=C1COc2cccnc2N1 | 1.65
65 | CC(=O)CC(=O)Nc1ccc2ccccc2c1 | 0.2
66 | CN1CN(C)C(c2ccncc2)=C1c1ccncc1 | 0.4
67 | Cc1cc(-n2cnc3c(=O)[nH]cnc32)ccc1N | 1.35
68 | CCC1(C(=O)OC)CCc2c(cc(OC)c3ccccc23)C1=O (centres undefined) | 0.55
69 | Cc1cc(/C=C2\SC(=S)NC2=O)cc(C)c1O | 0.35
70 | Cc1nnc2nc(N)[nH]n2c1=O | 0.6
71 | O=C(Nc1ccc2ccccc2c1)c1ccc(Cl)cc1Cl | 0.05
72 | CS(=O)(=O)Oc1ccc(Br)c2cccnc12 | 0.05
73 | CCOC(=O)Nc1c2ccccc2nc2ccccc12 | -0.05
74 | COc1ccc(N=Nc2ccc(N)nc2N)cc1 | 1.2
75 | CCOC(=O)C1CC(=O)c2cc(OC)c(OC)cc2C1 (centres undefined) | 1.2
76 | COc1ccc(Cc2nnc(SC)n2-c2ccc(F)cc2)cc1OC | 0.45
77 | COc1cc(C(=O)C(=O)c2ccc(O)c(OC)c2)ccc1O | 1.55
78 | Oc1ccc(Nc2ccc3ccccc3c2)cc1 | -3.05

A draw from above in order of count of non-hydrogen atoms, low to high:
Row | SMILES | T2 sensor activation Q score
72 | CS(=O)(=O)Oc1ccc(Br)c2cccnc12 | 0.05
54 | CCOC(=O)C(=O)Cc1nc2ccccc2s1 | 0.1
78 | Oc1ccc(Nc2ccc3ccccc3c2)cc1 | -3.05
63 | CC(=O)Nc1nc(C)c(CCCOc2ccc([N+](=O)[O-])cc2)c(=O)[nH]1 | 0.3

Records 29 through 30 of the list above:
Row | SMILES | T2 sensor activation Q score
29 | CCCCCCCCC(=O)c1c(OC)oc(C=O)cc1=O | 0.5
30 | CC1=CC(C)(C(Cl)(Cl)Cl)C(C)=C/C1=N/O (centres undefined) | 1.25

Carrying on:

Row | SMILES | T2 sensor activation Q score
79 | COc1ccc(C(C)=O)cc1CO/N=C1\CSCc2ccccc21 | -0.75
80 | COc1cc2c(=O)n3c4c(cccc4c2cc1OC)CC3 | 0.8
81 | Nc1ncc2[nH]c(N)nc2n1 | 0.2
82 | CCOC(=O)C1C(=O)C(=O)N(C(C)C)C1C(=O)OCC (centres undefined) | 1.8
83 | Nc1ncn([C@H]2C[C@H](O)[C@@H](CO)O2)c(=O)n1 | -1.2
84 | O=C(NC1(N2CCOCC2)CC1)c1ccc(Cl)cc1 | -1.5
85 | Nc1ncnc2c1cnn2C1CCCCC1 | -1.95
86 | CCCCC(=O)N1CCCC(C)C1 (centres undefined) | -0.75
87 | Nc1nc2c(ncn2C2CCCC2)c(=O)[nH]1 | 0.3
88 | CCN(CC)CCNc1c(C)cc(CO)c(Cl)c1C | 0.25
89 | O=C([O-])C(=O)[O-].[NH-][C@@H]1CCCC[C@H]1[NH-].[Pt+4] | -0.5
90 | Cc1cccc(NC2=C(C#N)C(=O)NC3(CCCC3)S2)c1 | -0.9
91 | c1ccc(-c2nc(-c3ccccn3)nc(-c3ccccn3)n2)nc1 | -0.55
92 | Nc1ccc(Cn2ccc3c4c(N)nc(N)nc4ccc32)cc1 | -1.65
93 | Clc1nc(Cl)nc(-c2cn(-c3ccccc3)c3ccccc23)n1 | 0
94 | O=C(COc1cc(Cl)c(Cl)cc1Cl)Nc1ccc([N+](=O)[O-])cc1Cl | -1.2
95 | Brc1ccc(N=Nc2ccc3ccccc3n2)cc1 | 1.9
96 | Cc1ccc(Cl)cc1NC(=O)N(C)CCO | -0.1
97 | CCCNC(=O)c1ccc(S(N)(=O)=O)cc1 | -1.1
98 | Cn1ccc(=Nc2ccc(NC(=O)c3ccc(N=c4ccn(C)c5ccc([N+](=O)[O-])cc45)cc3)cc2)cc1 | -0.15
99 | O=C1c2cccc(Sc3ccccc3)c2C(=O)c2c(Sc3ccccc3)cccc21 | -0.5
100 | CCOC(=O)Cc1c[nH]c(=S)[nH]c1=O | 0.5
101 | C/C=C1\NC(=O)[C@H]2CSSCC/C=C/[C@H](CC(=O)N[C@H](C(C)C)C(=O)N2)OC(=O)[C@H](C(C)C)NC1=O | 3
102 | O=C(OCC1CCC=CO1)C1CCC=CO1 (centres undefined) | 1.85
103 | Cc1cc(=O)[nH]c(N/N=C2/CCCCC2C)n1 (centres undefined) | 1.35
104 | CC1=CC2=C(C=O)C(=O)[C@](C)(O)[C@@H](O)C2=CO1 | -0.35

Row | SMILES | T2 sensor activation Q score
105 | S=C(Nc1ccccc1)Nc1nccs1 | 0.1
106 | Cc1cc(=S)[nH]c(=S)[nH]1 | 1.9
107 | CS(=O)(=O)Nc1nc2ccccc2[nH]1 | -0.55
108 | CCOC(=O)CC1(C)NC(C(=O)O)C(C)(C)S1 (centres undefined) | 1.4
109 | Cc1c(N2CCCC2)cc2c(c1NC(=O)c1ccccc1Cl)C(C)(C)CC2(C)C | -1.65
110 | Nc1ccc(Br)cc1Br | -0.95
111 | O=c1cc(-c2cccnc2)oc2c1ccc1ccccc12 | 1
112 | CCCCOc1ccc(Nc2cc(Cl)ccc2C(=O)O)cn1 | 1.2
113 | CCOC(=O)C(C#N)C(=N)C1C(=O)OC2CCCCC21 (centres undefined) | -0.45
114 | NS(=O)(=O)c1ccc(NC2(C(=O)O)CCCC2)cc1 | 0.85
115 | CN1CCc2ccccc2C1Cc1ccccc1NC(=O)c1sc2ccccc2c1Cl (centres undefined) | -1.9
116 | S=c1[nH]ccn1-c1ccccc1Cl | 1
117 | Nc1[nH]nc2nc(-c3ccccc3)[nH]c(=O)c12 | 0.05
118 | CCCCSc1ncnc2[nH]ncc12 | 0.45
119 | COCC(=O)OC1CCn2c1nc1c2C(=O)C(C)=C(NC(C)=O)C1=O (centres undefined) | 0.2
120 | CSc1cccc(NC(=O)OC2CCCCCCCCCCC2)c1 | 0.1
121 | CN(NC(=O)C(=O)NCc1ccco1)C(=O)NC1CCCCC1 | 0.4
122 | Cc1nc(-c2ccccc2)c(Cc2ccccc2O)c(=O)[nH]1 | 1.45
123 | O=C(O)c1ccc(OCCOc2ccccc2)cc1 | 0.55
124 | O=C(O)c1cc(Cl)n[nH]c1=O | 0.75
125 | O=C1C(Cl)=C(NCCc2ccccc2)C(=O)c2ccccc21 | 1.5
126 | CNc1nc(SC)n(C)c(=O)c1N=O | 0.4
127 | COc1ccc(Br)c2c1C(=O)CC2 | 1.4
128 | CC(C)c1cc(C(C)C)n2nc(N)nc2n1 | 1.25
129 | Cc1nc(Br)c(Br)c(C)c1Br | 0.1

— the supplement of paper PMC5407854, “Inhibitor of ppGalNAc-T3-mediated O-glycosylation blocks cancer cell invasiveness and lowers FGF23 levels” (eLife, 2017)
